Reference: PubChem BioAssay AID1159578 (Peter MacCallum Cancer Centre, 2015)

Screen: 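Genome-wide hunt for genes controlling movement of lymphatic endothelial cells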 (primary screen)
Cells: human lymphatic endothelial cells
Reagents: siRNA pool against human genes, 40 nM
Timing: 48 h after transfection
Read-out: 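Cells stained with dye and imaged after a scratch; covered wound area and nuclei counted, duplicates averaged, migration set against mock wells and turned into a robust z-score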
Reading the numbers: migration robust z-score: higher = faster migration into the scratch; nuclei per well: higher = more cells in the well
Call rule: 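Pools averaging fewer than 3300 nuclei are never called; remaining pools count as changed when migration robust z lies outside -2 to 2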
Calls: active = migration changed; inactive = no migration change, or too few cells
Shown is one part, drawn at random, of about 18,000 reagents tested. Of all reagents, about 1,030 (5.7%) were called active. 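Inactive calls also include pools with fewer than 3300 nuclei, whose migration was not assessed.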 Raw values vary from plate to plate and are shown uncorrected. A number with no mark means an inactive call. Not all columns of the deposit are shown.

What did the screen give for TTC39B?
migration robust z-score: 0.19; migration class with cell-count check: migration z between -2 and 2; enough cells; nuclei per well, duplicate mean: 4802

How did the screen score RANBP9?
migration robust z-score: 1; migration class with cell-count check: migration z between -2 and 2; enough cells; nuclei per well, duplicate mean: 5452

How did the screen score SLC14A1?
migration robust z-score: 0.99; migration class with cell-count check: migration z between -2 and 2; enough cells; nuclei per well, duplicate mean: 6051

With PYY, how do the results read?
migration robust z-score: -0.99; migration class with cell-count check: migration z between -2 and 2; enough cells; nuclei per well, duplicate mean: 5827

For PLEKHF2, how do the results read?
migration robust z-score: 0.12; migration class with cell-count check: migration z between -2 and 2; enough cells; nuclei per well, duplicate mean: 6030

What is on record for HECTD4?
migration robust z-score: 0.36; migration class with cell-count check: migration z between -2 and 2; enough cells; nuclei per well, duplicate mean: 4690

For PRB2, what does the deposit list?
migration robust z-score: -0.58; migration class with cell-count check: migration z between -2 and 2; enough cells; nuclei per well, duplicate mean: 6066

With AXL, what does the deposit list?
migration robust z-score: -2.43 (active); migration class with cell-count check: migration z below -2; enough cells; nuclei per well, duplicate mean: 5856

How did the screen score CLU?
migration robust z-score: 1.16; migration class with cell-count check: migration z between -2 and 2; enough cells; nuclei per well, duplicate mean: 4560

For LECT2, what does the deposit list?
migration robust z-score: 1.52; migration class with cell-count check: migration z between -2 and 2; enough cells; nuclei per well, duplicate mean: 7199

What did the screen give for NT5C2?
migration robust z-score: 0.26; migration class with cell-count check: migration z between -2 and 2; enough cells; nuclei per well, duplicate mean: 5916

For NEUROD4, how do the results read?
migration robust z-score: 0.71; migration class with cell-count check: migration z between -2 and 2; enough cells; nuclei per well, duplicate mean: 7224

What is on record for FGF9?
migration robust z-score: -0.11; migration class with cell-count check: migration z between -2 and 2; enough cells; nuclei per well, duplicate mean: 6068

For SYNRG, what does the deposit list?
migration robust z-score: -0.26; migration class with cell-count check: migration z between -2 and 2; enough cells; nuclei per well, duplicate mean: 5991

What is on record for TIMM23B?
migration robust z-score: -1.13; migration class with cell-count check: migration z between -2 and 2; enough cells; nuclei per well, duplicate mean: 4554

What is on record for CD63?
migration robust z-score: 0.48; migration class with cell-count check: migration z between -2 and 2; enough cells; nuclei per well, duplicate mean: 5960

How did the screen score UCN?
migration robust z-score: -0.45; migration class with cell-count check: migration z between -2 and 2; enough cells; nuclei per well, duplicate mean: 4984

Which result is listed for SLC19A1?
migration robust z-score: -0.31; migration class with cell-count check: migration z between -2 and 2; enough cells; nuclei per well, duplicate mean: 6198

What is on record for C1QTNF7?
migration robust z-score: -0.78; migration class with cell-count check: migration z between -2 and 2; enough cells; nuclei per well, duplicate mean: 4664

What is on record for LIPA?
migration robust z-score: 0.99; migration class with cell-count check: migration z between -2 and 2; enough cells; nuclei per well, duplicate mean: 6550

With RUNDC3A, what was measured?
migration robust z-score: 0.41; migration class with cell-count check: migration z between -2 and 2; enough cells; nuclei per well, duplicate mean: 5874

How did the screen score DPEP3?
migration robust z-score: 0.16; migration class with cell-count check: migration z between -2 and 2; enough cells; nuclei per well, duplicate mean: 5400

What did the screen give for MYL12B?
migration robust z-score: -0.35; migration class with cell-count check: migration z between -2 and 2; enough cells; nuclei per well, duplicate mean: 5809

What is on record for AIRE?
migration robust z-score: 0.5; migration class with cell-count check: migration z between -2 and 2; enough cells; nuclei per well, duplicate mean: 6230

How did the screen score OGDH?
migration robust z-score: 0.68; migration class with cell-count check: migration z between -2 and 2; enough cells; nuclei per well, duplicate mean: 5430

What is on record for ITM2A?
migration robust z-score: -1.6; migration class with cell-count check: migration z between -2 and 2; enough cells; nuclei per well, duplicate mean: 4973

How did the screen score CLIP4?
migration robust z-score: 1.34; migration class with cell-count check: migration z between -2 and 2; enough cells; nuclei per well, duplicate mean: 5714

Copied from the listing, 4 entries:
C1QTNF7 → migration robust z-score: -0.78; migration class with cell-count check: migration z between -2 and 2; enough cells; nuclei per well, duplicate mean: 4664
LIPA → migration robust z-score: 0.99; migration class with cell-count check: migration z between -2 and 2; enough cells; nuclei per well, duplicate mean: 6550
RUNDC3A → migration robust z-score: 0.41; migration class with cell-count check: migration z between -2 and 2; enough cells; nuclei per well, duplicate mean: 5874
DPEP3 → migration robust z-score: 0.16; migration class with cell-count check: migration z between -2 and 2; enough cells; nuclei per well, duplicate mean: 5400
